From PMC7859239

Chains of the proteins cited; added tags and fusions are not shown.
UniProt P36595: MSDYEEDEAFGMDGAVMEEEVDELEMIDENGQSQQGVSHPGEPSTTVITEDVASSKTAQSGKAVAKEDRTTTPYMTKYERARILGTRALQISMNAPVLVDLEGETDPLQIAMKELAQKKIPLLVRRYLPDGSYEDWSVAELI

Target: T1, S. pombe Pol I subunit AC40 with C-terminal flag-his tag (Schizosaccharomyces pombe (endogenous in S. pombe)) (UniProt O94616)
T1 sequence: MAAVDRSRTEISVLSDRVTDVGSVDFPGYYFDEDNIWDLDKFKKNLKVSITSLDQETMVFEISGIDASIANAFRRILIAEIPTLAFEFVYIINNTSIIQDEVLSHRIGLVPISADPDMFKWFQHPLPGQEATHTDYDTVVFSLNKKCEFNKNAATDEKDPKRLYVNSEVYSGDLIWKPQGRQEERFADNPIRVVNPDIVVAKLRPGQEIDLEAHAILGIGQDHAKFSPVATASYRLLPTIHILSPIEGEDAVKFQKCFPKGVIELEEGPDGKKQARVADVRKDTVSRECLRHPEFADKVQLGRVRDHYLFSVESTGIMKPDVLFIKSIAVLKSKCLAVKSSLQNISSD
Test: affinity purification with mass spectrometry; endogenous Pol I purified from S. pombe extract by the 10xHis tag on AC40 (Ni-NTA), then MonoQ and MonoS; subunits seen as bands on Coomassie-stained SDS-PAGE; A49/A34.5 also by mass spectrometry

With “S. pombe general RNA polymerase subunit Rpb6 (from UniProt P36595 1-142)” the binding was “binds”.

No constants are given. Whether binding was seen depends on the method and setting. In cells and extracts the contact can be indirect. A yes stands for co-enrichment or nearness to the bait. Other partners may have been found. Sequences can lack the tags named with a protein.
